PubChem BioAssay AID1487 (National Center for Advancing Translational Sciences (NCATS), 2009)
The list shows a part of the results. The main result of the screen is listed elsewhere. These columns were measured beside it and carry no call. Compounds called inactive in the main read-out are mostly missing here. The note in brackets gives the kind of curve behind each potency; many fits are weak.

Experiment: qHTS Assay for Modulators of Lamin A Splicing
Details: HeLa LMNA splicing GFP/RFP minigene ratio, 48 h
Outline: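 Read-out is the ratio of GFP to DsRed2 object intensity, acquired by 488 nm laser-scanning cytometry on HeLa lamin A-EGFP minigene reporter cells. Compound incubation 48 hrs at 37 °C in Opti-MEM with 2% FBS; DMSO 0.5% final.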

[1] = measured here: RFP viability control channel
[2] = measured here: GFP splicing reporter channel

Structure (SMILES) | AC50 [1] | AC50 [2]
CCOC(=O)N=Nc1c2ccccc2c2nc3no[nH]c3nc12 | 2.82 µM [falling, single point] | 
CNc1oc(-c2ccc(COc3ccc(C)cc3)o2)nc1C#N | 3.16 µM [rising, full curve, poor fit] | 1.78 µM [rising, full curve, poor fit]
CCN(CC)C(=O)C1CCCN(c2ccccc2[N+](=O)[O-])C1 (stereo not drawn) | 0.1 µM [falling, full curve, poor fit] | 
CC(C)C(=O)N1CCN(c2ccc(NC(=O)COc3ccccc3[N+](=O)[O-])cc2)CC1 |  | 0.891 µM [falling, full curve, poor fit]
CCCOc1ccc(OCC(=O)c2[nH]c(C)c(C(C)=O)c2C)cc1 | 6.31 µM [rising, full curve] | 
Cc1cccc(NC(=O)CSc2nnc(CCCCCNC(=O)OC(C)(C)C)o2)c1C |  | 11.2 µM [rising, partial curve, poor fit]
O/N=C/c1cccn1-c1ccc(O)cc1 | 12.6 µM [rising, single point] | 14.1 µM [rising, single point]
CCC(C)CN1CCC(CO)(Cc2ccccc2Cl)CC1 (stereo not drawn) |  | 0.891 µM [falling, full curve, poor fit]
N=C(N)SCCN | 0.00316 µM [falling, full curve, poor fit] | 
CCOC(=O)c1ccc(NC(=O)CSc2nc(SC)ns2)cc1 |  | 11.2 µM [rising, single point]
Cc1ccc(C(=O)N2C3C=CC(C3)C2(C(F)(F)F)C(F)(F)F)cc1 (stereo not drawn) | 1 µM [falling, full curve] | 0.708 µM [falling, full curve]
O=C(NC(=S)Nc1nc2c(s1)CCCC2)c1ccc(C(=O)c2ccccc2)cc1 | 0.224 µM [rising, full curve, poor fit] | 
Nc1ncnc2c1c(I)cn2C1OC(CO)C(O)C1O (stereo not drawn) | 2.82 µM [falling, full curve] | 5.01 µM [falling, full curve]
Cc1nc(C)c(-c2csc(NCCc3ccccc3)n2)s1 | 35.5 µM [rising, single point] | 
COc1cccc(C(=O)O/N=C2\CCS(=O)(=O)c3sccc32)c1 |  | 3.98 µM [falling, partial curve]
CC(=O)c1ccc(NC(=O)CSc2nnc(NC(=O)Nc3ccccc3)s2)cc1 | 20 µM [rising, partial curve, poor fit] | 0.0282 µM [rising, full curve, poor fit]
O=C(CSc1ccc(-c2ccc(F)cc2)nn1)NCCc1ccccc1 |  | 35.5 µM [falling, partial curve, poor fit]
Cc1ccc(OCC(=O)N2CCN(C(=O)c3cccc(F)c3)CC2)cc1 |  | 0.282 µM [rising, full curve, poor fit]
CC(C)(C)c1cc(C(C)(C)C)c2oc(=O)c(-c3nc4ccc(C(=O)O)cc4[nH]3)cc2c1 | 3.55 µM [falling, full curve] | 5.01 µM [falling, full curve, poor fit]

An excerpt from above in order of length of the SMILES, low to high.
Structure (SMILES) | AC50 [1] | AC50 [2]
CCC(C)CN1CCC(CO)(Cc2ccccc2Cl)CC1 (stereo not drawn) |  | 0.891 µM [falling, full curve, poor fit]
COc1cccc(C(=O)O/N=C2\CCS(=O)(=O)c3sccc32)c1 |  | 3.98 µM [falling, partial curve]
CC(C)C(=O)N1CCN(c2ccc(NC(=O)COc3ccccc3[N+](=O)[O-])cc2)CC1 |  | 0.891 µM [falling, full curve, poor fit]
CC(C)(C)c1cc(C(C)(C)C)c2oc(=O)c(-c3nc4ccc(C(=O)O)cc4[nH]3)cc2c1 | 3.55 µM [falling, full curve] | 5.01 µM [falling, full curve, poor fit]

Next part:

Structure (SMILES) | AC50 [1] | AC50 [2]
CCC(=O)Nc1nc2ccccc2n1Cc1ccccc1 | 35.5 µM [rising, single point] | 28.2 µM [rising, single point]
COc1cc(CNn2nnnc2N)cc(Br)c1OCc1c(Cl)cccc1Cl | 28.2 µM [rising, single point] | 20 µM [rising, single point]
CCOC(=O)c1ccccc1NC(=O)CSc1cc(C)[nH]c(=O)n1 |  | 0.141 µM [falling, single point]
CCOC(=O)N1CCN(C(=O)c2ccccc2-c2ccccc2)CC1 | 11.2 µM [rising, partial curve, poor fit] | 
COc1ccccc1OCC(=O)NNC(=O)Nc1ccc(Cl)cc1 | 7.08 µM [rising, partial curve, poor fit] | 
Cc1ccnc(N=Cc2c(O)ccc3oc4c(c23)CCCC4)c1 | 22.4 µM [rising, single point] | 
CCn1c(SCC(=O)c2cc(C)n(CC3CCCO3)c2C)nc2ccccc21 (stereo not drawn) | 35.5 µM [rising, single point] | 
CC(=O)NNC(=O)c1nc(-c2ccccc2)c(C)o1 |  | 35.5 µM [rising, single point]
CCOC(=O)c1[nH]c2ccc(OC)cc2c1NC(=O)OC | 25.1 µM [rising, single point] | 14.1 µM [rising, single point]
Cc1cccc(OCc2nnc(SCc3nc4cc(C(F)(F)F)ccc4c(=O)[nH]3)o2)c1 |  | 7.08 µM [rising, partial curve]
CC(=O)Oc1cc2c(C(=O)NCCCN3CCOCC3)c(C)oc2c2ccccc12 | 10 µM [rising, partial curve] | 12.6 µM [rising, partial curve]
CCCCn1c(-c2ccc([N+](=O)[O-])cc2)n[nH]c1=S | 0.0501 µM [rising, full curve, poor fit] | 7.94 µM [rising, single point]
CCCCC1C(=O)N(c2ccccc2)N(c2ccccc2)C1=O | 0.01 µM [rising, full curve, poor fit] | 0.00794 µM [rising, full curve, poor fit]
CS(=O)(=O)c1ccc(C(=O)N2CCN(Cc3ccccc3)CC2)cc1 | 0.0631 µM [rising, full curve, poor fit] | 
Cn1c(CO)cnc1SCC(=O)c1ccc(Cl)cc1 | 0.631 µM [falling, full curve, poor fit] | 6.31 µM [falling, single point]
C=CCn1c(COc2ccc3c(c2)CCCC3)nnc1SCC(=O)Nc1cccc(SC)c1 | 17.8 µM [falling, single point] | 35.5 µM [falling, single point]
Cc1ccc(O)c(C2=NOC(O)(C(F)(F)C(F)F)C2)c1 (stereo not drawn) | 35.5 µM [rising, single point] | 31.6 µM [rising, single point]
CN(CCCOc1ccccc1Br)Cc1ccccc1 | 0.316 µM [falling, full curve, poor fit] | 
O=C(Nc1ccccc1N1CCCCC1)c1ccc(-c2ccc(Cl)cc2)o1 | 5.62 µM [rising, single point] | 

Structure (SMILES) | AC50 [1] | AC50 [2]
COc1ccc(CNc2nc3ccccc3n2CCN2CCCCC2)c(OC)c1 | 11.2 µM [rising, single point] | 
COc1ccc(/C=C/C(=O)N(CC(C)C)CC(C)C)cc1Br | 2.51 µM [rising, full curve, poor fit] | 
COc1cc(NC(=O)CSCC(=O)Nc2cccc(C(F)(F)F)c2)c(Cl)cc1Cl | 14.1 µM [falling, partial curve, poor fit] | 
CCOC(=O)c1[nH]c(C)c(CCC(=O)N2CCN(c3cccc(C)c3C)CC2)c1C | 35.5 µM [rising, single point] | 35.5 µM [rising, single point]
CSc1nnc2ccc(-c3ccccn3)nn12 | 1.26 µM [rising, full curve] | 0.794 µM [rising, full curve]
CCCCCCCCOC(=O)C1=C(C)Nc2nnnn2C1c1cccs1 (stereo not drawn) | 28.2 µM [falling, single point] | 35.5 µM [falling, single point]
CS(=O)(=O)NCCCCNc1ccc(C(F)(F)F)cc1[N+](=O)[O-] |  | 17.8 µM [falling, partial curve, poor fit]
N#CC1=C(N)N2C(=C(C#N)C13CCCCC3)SC1CCCCC12O (stereo not drawn) | 12.6 µM [rising, partial curve] | 
CC(C)c1cc(NC(=O)c2ccccc2)cc(C(C)C)c1O | 17.8 µM [rising, single point] | 
Cc1cc(N2CCCCC2)n2nc(C)c(-c3ccccc3)c2n1 | 35.5 µM [rising, single point] | 35.5 µM [rising, single point]
COc1ccc(C)cc1NC(=O)NC(C)c1ccncc1 (stereo not drawn) | 2 µM [falling, partial curve, poor fit] | 
O=C1ON=C(c2ccccc2)/C1=C/c1ccc(-c2ccccc2[N+](=O)[O-])o1 | 14.1 µM [rising, partial curve, poor fit] | 
Brc1ccc(-c2nnc3n2C2(CCCC2)Cc2ccccc2-3)o1 | 35.5 µM [rising, single point] | 35.5 µM [rising, single point]
COc1ccc(OCc2nc3ccc(S(=O)(=O)Nc4ccccc4Cl)cc3[nH]2)cc1 | 11.2 µM [rising, partial curve] | 
O=C1CN(C(=O)CSc2nc(-c3ccccc3)cs2)c2ccccc2N1 | 12.6 µM [rising, partial curve] | 7.08 µM [rising, partial curve]
COc1ccc(CCNC(=O)c2c(O)c3cccc4c3n(c2=O)CC4)cc1OC | 22.4 µM [rising, single point] | 11.2 µM [rising, single point]
O=C(OCc1nnc(-c2ccccc2)o1)c1cc([N+](=O)[O-])ccc1Cl | 12.6 µM [rising, partial curve, poor fit] | 
O=C(N/C=N/OCc1cccc(C(F)(F)F)c1)N1OC[C@@H]2COc3ccc4ccccc4c3[C@@H]21 | 14.1 µM [rising, single point] | 
